The results in this text go back to publication PMC6155007.

By UniProt entry, the sequences of proteins in these tests, tags left out.
UniProt Q13547: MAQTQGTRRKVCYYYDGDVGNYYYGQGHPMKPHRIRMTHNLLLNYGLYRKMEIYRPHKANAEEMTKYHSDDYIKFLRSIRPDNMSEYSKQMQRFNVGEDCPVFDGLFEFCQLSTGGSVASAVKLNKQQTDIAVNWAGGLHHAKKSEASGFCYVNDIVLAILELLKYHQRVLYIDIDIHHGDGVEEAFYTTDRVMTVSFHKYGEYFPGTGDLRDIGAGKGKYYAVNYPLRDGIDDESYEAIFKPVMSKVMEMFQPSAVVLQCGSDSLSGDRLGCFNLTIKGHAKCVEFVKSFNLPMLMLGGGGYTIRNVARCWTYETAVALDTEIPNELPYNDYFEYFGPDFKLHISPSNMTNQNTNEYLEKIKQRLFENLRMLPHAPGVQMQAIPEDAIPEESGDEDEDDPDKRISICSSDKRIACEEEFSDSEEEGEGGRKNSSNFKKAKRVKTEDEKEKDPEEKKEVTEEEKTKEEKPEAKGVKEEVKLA

This assay deals with T1, RSF1 (bait of the tandem affinity purification) (human) (UniProt Q96T23).
T1 sequence: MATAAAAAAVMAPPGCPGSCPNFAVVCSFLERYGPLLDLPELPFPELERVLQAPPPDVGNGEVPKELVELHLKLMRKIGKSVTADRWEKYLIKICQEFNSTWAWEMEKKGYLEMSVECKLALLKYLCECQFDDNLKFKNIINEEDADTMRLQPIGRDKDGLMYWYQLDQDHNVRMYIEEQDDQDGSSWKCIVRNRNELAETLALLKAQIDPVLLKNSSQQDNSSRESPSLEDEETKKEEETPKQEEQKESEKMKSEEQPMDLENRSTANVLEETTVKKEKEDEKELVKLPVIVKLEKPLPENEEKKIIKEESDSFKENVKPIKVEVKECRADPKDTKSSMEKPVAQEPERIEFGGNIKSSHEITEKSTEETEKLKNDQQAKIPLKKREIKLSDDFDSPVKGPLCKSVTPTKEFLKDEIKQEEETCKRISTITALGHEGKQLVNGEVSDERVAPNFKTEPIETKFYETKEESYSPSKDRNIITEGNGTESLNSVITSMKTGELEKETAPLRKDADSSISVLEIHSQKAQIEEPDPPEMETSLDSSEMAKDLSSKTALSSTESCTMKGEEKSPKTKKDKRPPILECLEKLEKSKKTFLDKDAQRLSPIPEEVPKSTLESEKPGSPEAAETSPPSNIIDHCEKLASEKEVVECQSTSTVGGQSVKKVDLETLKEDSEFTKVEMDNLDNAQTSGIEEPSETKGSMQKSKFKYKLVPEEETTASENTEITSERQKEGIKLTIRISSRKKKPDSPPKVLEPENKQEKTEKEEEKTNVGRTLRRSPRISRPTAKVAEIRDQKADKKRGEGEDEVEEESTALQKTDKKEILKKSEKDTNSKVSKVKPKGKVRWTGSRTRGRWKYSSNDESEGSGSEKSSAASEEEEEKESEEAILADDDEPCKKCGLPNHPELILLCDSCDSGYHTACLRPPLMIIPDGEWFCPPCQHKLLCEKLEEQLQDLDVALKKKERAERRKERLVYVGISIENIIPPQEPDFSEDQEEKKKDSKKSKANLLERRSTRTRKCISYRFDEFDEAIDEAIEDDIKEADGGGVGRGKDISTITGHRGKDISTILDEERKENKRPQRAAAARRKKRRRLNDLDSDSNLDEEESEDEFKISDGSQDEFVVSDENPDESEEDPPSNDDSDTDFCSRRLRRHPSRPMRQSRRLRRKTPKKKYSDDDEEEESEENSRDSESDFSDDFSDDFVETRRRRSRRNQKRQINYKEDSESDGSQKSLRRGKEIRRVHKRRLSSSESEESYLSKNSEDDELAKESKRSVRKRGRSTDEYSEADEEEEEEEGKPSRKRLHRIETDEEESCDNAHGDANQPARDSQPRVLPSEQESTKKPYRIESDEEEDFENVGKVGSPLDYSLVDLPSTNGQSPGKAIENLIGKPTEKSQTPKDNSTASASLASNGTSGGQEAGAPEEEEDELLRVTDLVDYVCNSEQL
Briefly: affinity purification with mass spectrometry; tandem affinity purification of RSF1 followed by mass spectrometry analysis.

Results are given in words; binding and its absence hold for the method and conditions named. Binding seen in cells or lysates may run through a third protein. These calls come from enrichment with a bait or labelling near it, and not all partners need be listed.

In the case of “HDAC1 (endogenous) (from UniProt Q13547 1-482) (enzyme)”, the binding result was “binds”.
